± gives the standard deviation. Only a part is listed here, and it is no random draw. Many of these values have a large error.

The test system of this test is MILI (PIWIL2) piRISC loaded with piRNA #2 (26 nt). Nature of the test: pre-steady-state target cleavage rate (min^-1); MIWI and MILI are mouse PIWI proteins and EfPiwi is from a freshwater sponge; tags in brackets are library labels; higher = faster piRNA-guided slicing of the target. As to conditions: guide: piRNA #2 5'p-UUAGGUAACCCAGUAGAUCCAGAGGA; auxiliary factor: 500 nM mouse GTSF1. The method, boiled down:
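In Cleave-'n-Seq, a transcribed, DNA-blocked target RNA library (0.1 nM) was combined with 1 nM active affinity-purified piRISC bearing one synthetic guide, with or without 500 nM GTSF1 partner protein. Reactions ran in HEPES–potassium acetate buffer at 33 °C for 0–8 or 0–960 min. Uncleaved targets were sequenced and normalised to depth and to weakly complementary targets, three trials were pooled, and k3 was capped at 0.0001 min^-1. The pre-steady-state cleavage rate was obtained by fitting a burst-and-steady-state model.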
For the sequence CUUAAGGAGACGAUCUACUGGGUUACCAUA, the “pre-steady-state target cleavage rate” value was determined as 0.000944 ± 0.0047.

Take CUUAAGGAGUGGAUCUUGAGGGUUACCUAA: the “pre-steady-state target cleavage rate” value stood at 0.00115 ± 0.0065.

On to CUUAAGGAGACCUACUACAGCGUUACCUAA, for which the “pre-steady-state target cleavage rate” value turned out to be 0.000593 ± 0.0098. With CUUAAGGAGACGAUCUACUGCCUUACCUAA the figure was 0.000198 ± 0.028; with CUUAAGGAGAGGAUCUACUGGCAUACCUAA, 0.000128 ± 0.038; with CUUAAGGAGACCUUCUAGCUGGGUUACCUAA, 0.000401 ± 0.014. With CUUAACCUCUGCAUCUACUGGGUUACCUUA the figure was 0.178 ± 0.048. As for CUUAAGCUCUGGCAUCUACUGGGUUACCUAA, the “pre-steady-state target cleavage rate” value was 0.453 ± 0.15.

Regarding CUUAUCCUCUGGAUCUAUGGGUUACCUAA, the “pre-steady-state target cleavage rate” value worked out at 0.0334 ± 0.0086. CUUAUCCUCUGGAUCUACUGGGUUCCCUAA: the “pre-steady-state target cleavage rate” value was found to be 0.321 ± 0.13. As for CUUAAGGAGUGGAUCUACUGGUGUUACCUAA, the “pre-steady-state target cleavage rate” value came to 0.000326 ± 0.021. Under CUUAAGGUCUGGAUCUUACUGGGUUACCUAA stands 0.00211 ± 0.0044; under CUUAAGGACUCGAUCUUCUGGGUUACCUAA, 0.00187 ± 0.011; under CUUAAGGAGACCUACUACGGGGUUACCUAA, 0.00105 ± 0.012. With CUUAAGGAGACCUACUACUGAGUUACCUAA the figure was 0.00084 ± 0.0097. With CUUAAGGAGACCUUCAACUGGGUAACCUAA the figure was 0.000101 ± 0.051. “CUUAAGGUCUGGAUCUACUGGGUUACCUAU [g2:g23:cont:t1U]”: the “pre-steady-state target cleavage rate” value was found to be 0.101 ± 0.014. As for CUUAAGGAGACGAUCACUGGGUUACCUAA, the “pre-steady-state target cleavage rate” value is 0.000337 ± 0.014. CUUAAGGAGACCUAGAUGUGGCUUUCCUAA: the “pre-steady-state target cleavage rate” value came to 0.000189 ± 0.03. Under CUUAAGCUCUGGAUCUACUGGGCUUACCUAA stands 0.019 ± 0.0061; under CUUAUCCUCUGGACUCUACUGGGUUACCUAA, 0.0887 ± 0.019; under CUUAACCUCUGGAUGUACUCGGUUACCUAA, 0.00207 ± 0.0043. As for CUUAAGGAGACCUUCUACUGCGGUUACCUAA, the “pre-steady-state target cleavage rate” value came out at 0.00138 ± 0.0066. With CUUAAGGAGACCUACUACUGUGGUUACCUAA, the “pre-steady-state target cleavage rate” value was below 0.0001. CUUAAGGAGACCUUCUACUGGGUUAACCUAA: the “pre-steady-state target cleavage rate” value came to 0.000908 ± 0.01. On to CUUAAGGAGACCUAGAUCUGGGAAACCUAA, for which the “pre-steady-state target cleavage rate” value was determined as 0.000106 ± 0.066. With CUUAAGGAGACCAACUACUGGGAUACCUAA the figure was 0.000343 ± 0.027. With CUUAAGGAGACCUAGAUGACGGUUACCGAA, the “pre-steady-state target cleavage rate” value is below 0.0001. For the sequence CUUAAGGAGACCAUCUACUGGGUUAGCUUA, the “pre-steady-state target cleavage rate” value amounted to 0.000172 ± 0.042.

In the case of CUUAAGGAGAGGAUCAACUGGGUUACCUUA, the “pre-steady-state target cleavage rate” value came out at 0.00153 ± 0.006. Under CUUAUCCUCUGGAUCAACAGGGUUACCUAA stands 0.0724 ± 0.01; under CUUAAGGUCUGGAUCUACUGGCGUUACCUAA, 0.000459 ± 0.011.

Consider CUUAAGGACUGGAUCUACUGGGAUACCUUA, for which the “pre-steady-state target cleavage rate” value was determined as 0.0015 ± 0.015. As to “CUUAAGGAGACCUAGAUGACGGUUACCUAU [g2:g10:cont:t1U]”, the “pre-steady-state target cleavage rate” value came out at 0.000107 ± 0.052. On to CUUAUCCUCUGGAUCUAGACGGUUACCUAA, for which the “pre-steady-state target cleavage rate” value stood at 0.00208 ± 0.0054. With CUUAAGGACUGGAUCUACGGGUUACCUAA the figure was 0.001 ± 0.013. With CUUAAGGAGUGGAUCUUGUGGGUUACCUAA the figure was 0.00248 ± 0.0034. With CUUAAGGAGUGGUUCUACUGGGUAACCUAA the figure was 0.00608 ± 0.0068.

In the case of CUUAAGGAGACCAUCUACUGGGCUACCUAA, the “pre-steady-state target cleavage rate” value was 0.000408 ± 0.035. Under CUUAAGGAGACGAUCUUCUGGGUAACCUAA stands 0.00194 ± 0.005; under CUUAUCCUCUCGAUCUACUGGGUUACCAAA, 0.13 ± 0.025; under CUUAAGGAGACCAUCUACCGGGUUACCUAA, 0.000828 ± 0.012. With CUUAAGGAGAGGAUGUACUGGGUUACCUAA the figure was 0.00413 ± 0.0059; with CUUAACCUCUGGUCUACUGGGUUACCUAA, 0.333 ± 0.11; with CUUAACCUCUGGUUCUACUGGGUUACCUUA, 0.3 ± 0.087. With CUUAAGGACGGAUCUACUGGGUUACCUAA the figure was 0.0115 ± 0.018; with CUUAAGGAGACCAUCUACUGGGUUCACCUAA, 0.000487 ± 0.022; with CUUAAGGACUGGAUCUUCUGGGUUUCCUAA, 0.00038 ± 0.029.

As to CUUAAGGAGACCAUCUACUGGCUUACCUAA, the “pre-steady-state target cleavage rate” value turned out to be 0.000801 ± 0.0081. With CUUAAGCUCUGGAUCUACUCGGUUACCUUA the figure was 0.00122 ± 0.0094. Under CUUAAGGAGACCAUCUACUCGGGUUACCUAA stands 0.000353 ± 0.026. With CUUAAGGAGAGGAUCAACUGGGUUUCCUAA, the “pre-steady-state target cleavage rate” value stood at 0.000999 ± 0.006.

Regarding CUUAAGGAGACCUAGAUGUCCCUUACCUAA, the “pre-steady-state target cleavage rate” value is 0.000437 ± 0.022. Regarding CUUAAGGAGACGAUCUACUGGGGUUACCUAA, the “pre-steady-state target cleavage rate” value came to 0.00224 ± 0.0045. As to CUUAUCCUCUGGAUCUACUGGGUAUCCUAA, the “pre-steady-state target cleavage rate” value worked out at 0.0336 ± 0.014. With CUUAAGGAGACGAUCUACUGUGUUACCUAA, the “pre-steady-state target cleavage rate” value worked out at 0.00088 ± 0.013. In the case of CUUAAGGAGACCUUCUACUGGGUUACGUUA, the “pre-steady-state target cleavage rate” value came to 0.00055 ± 0.015. Under CUUAAGGACAGGAUCUACUGGGAUACCUAA stands 0.00261 ± 0.0087; under CUUAAGGAGAGGAUCUAUUGGGUUACCUAA, 0.00181 ± 0.0055. With CUUAAGGACAGGAUCUACUGGGUUUCCUAA the figure was 0.00491 ± 0.0063. CUUAAGGAGACCCUCUACUGGGUUACCUAA: the “pre-steady-state target cleavage rate” value is 0.000648 ± 0.012.

Regarding CUUAAGGAGACCUUCAUCUGGGUUACCUAA, the “pre-steady-state target cleavage rate” value was found to be 0.000868 ± 0.01. With CUUAAGGAGAGGAUCUACUGGGAUUACCUAA the figure was 0.00243 ± 0.005.

As to CUUAAGGAGAGGAACUACUGGGAUACCUAA, the “pre-steady-state target cleavage rate” value was found to be 0.000293 ± 0.024. Under CUUAAGGAGACGAUCUACUGGGUUACCGAA stands 0.000704 ± 0.012. As to CUUAAGGAGAGGAUCUACUGCGGUUACCUAA, the “pre-steady-state target cleavage rate” value was 0.000283 ± 0.015. Under CUUAAGGAGACCUAGUACUGGGUUACCAA stands 0.000186 ± 0.038; under CUUAAGGAGACCAUCUUACUGGGUUACCUAA, 0.000706 ± 0.015; under CUUAAGGAGUGGAUCUACGGGUUACCUAA, 0.0019 ± 0.0046.

In the case of CUUAACCUCUGGAUCUUCUGGCUUACCUAA, the “pre-steady-state target cleavage rate” value amounted to 0.000284 ± 0.02. With CUUAAGGAGACGACUACUGGGUUACCUAA the figure was 0.000637 ± 0.0092.

The values are drawn from the supplement of paper PMC10338343.
